Values from PubChem BioAssay AID1053208 (Peter MacCallum Cancer Centre, 2014)
Here is an unselected part of about 17,000 reagents. 788 of all reagents (4.7%) were called active. 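Calls rest on z-score classes alone; an extra cut-off of viability at most 70% of control was not applied to them.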 The numbers tell different reagents against one gene apart. No sequences are given here.

Aim: 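Find knock-downs that sensitise mouse osteosarcoma cells to doxorubicin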 (primary screen)
Cells: mouse osteosarcoma cells, early-passage culture from an engineered mouse model of fibroblastic bone tumour
Knock-down reagent: siRNA pool against mouse genes, 40 nM
Duration: about 120 h (48 h before drug, then 72 h with drug)
Challenge: doxorubicin 100 nM for 72 h, roughly 30-40% inhibitory dose
Read-out: 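Luminescent ATP signal taken as viability with or without 100 nM doxorubicin for 72 h; mean of two wells set against non-targeting siRNA and turned into robust z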
Scale: viability z-score with doxorubicin and doxorubicin viability vs non-targeting: higher = more viable cells under doxorubicin; viability z-score without drug: higher = more viable cells with knock-down alone; z-score of drug to no-drug ratio: higher = less drug sensitisation by knock-down
Call rule: 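a pool counts as active when its viability z-score with doxorubicin is -2 or below and its z-score without drug lies between -2 and 2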

The opening 4 entries, ahead of the listing:
| Gene | pool no. | combined z-score class | viability z-score with doxorubicin | viability z-score without drug | z-score of drug to no-drug ratio | doxorubicin viability vs non-targeting | Outcome |
| --- | --- | --- | --- | --- | --- | --- | --- |
| Or10d4b | 1 | no change with or without drug | -1.69 | -1.52 | -0.67 | 0.79 | inactive |
| H1f9 | 1 | no change with or without drug | 1.35 | 0.51 | 1.12 | 1.06 | inactive |
| Fzd3 | 1 | no change with or without drug | -0.67 | 1.52 | -1.46 | 0.88 | inactive |
| Msmo1 | 1 | no change with or without drug | 0.22 | 1.52 | -0.67 | 0.96 | inactive |

The listing, from the start:
| Gene | pool no. | combined z-score class | viability z-score with doxorubicin | viability z-score without drug | z-score of drug to no-drug ratio | doxorubicin viability vs non-targeting | Outcome |
| --- | --- | --- | --- | --- | --- | --- | --- |
| Or10d4b | 1 | no change with or without drug | -1.69 | -1.52 | -0.67 | 0.79 | inactive |
| H1f9 | 1 | no change with or without drug | 1.35 | 0.51 | 1.12 | 1.06 | inactive |
| Fzd3 | 1 | no change with or without drug | -0.67 | 1.52 | -1.46 | 0.88 | inactive |
| Msmo1 | 1 | no change with or without drug | 0.22 | 1.52 | -0.67 | 0.96 | inactive |
| Efemp1 | 1 | no change with or without drug | 0.67 | 1.18 | 0 | 1 | inactive |
| Tulp1 | 1 | no change with or without drug | 0.34 | 0.84 | -0.11 | 0.97 | inactive |
| Cab39 | 1 | no change with or without drug | -0.45 | -0.51 | 0 | 0.9 | inactive |
| Epn2 | 1 | no change with or without drug | -0.22 | 0.17 | -0.22 | 0.92 | inactive |
| Glul | 1 | no change with or without drug | -1.57 | -0.51 | -1.24 | 0.8 | inactive |
| Gipc1 | 1 | no change with or without drug | -0.56 | 0.51 | -0.79 | 0.89 | inactive |
| Plekha3 | 1 | no change with or without drug | -1.91 | -0.84 | -1.35 | 0.77 | inactive |
| Crh | 1 | no change with or without drug | 1.24 | -0.17 | 1.57 | 1.05 | inactive |
| Tmem176b | 1 | high cell count without drug only | -0.22 | 2.02 | -1.35 | 0.92 | inactive |
| Celf6 | 1 | no change with or without drug | -1.46 | -0.17 | -1.35 | 0.81 | inactive |
| Slc36a2 | 1 | no change with or without drug | -1.12 | -0.51 | -0.79 | 0.84 | inactive |
| Fkbp14 | 1 | no change with or without drug | -0.22 | 0.34 | -0.34 | 0.92 | inactive |
| Mbp | 1 | high cell count with doxorubicin only | 2.36 | -0.34 | 2.92 | 1.15 | inactive |
| Rnpepl1 | 1 | low cell count with doxorubicin only | -3.6 | -1.85 | -2.7 | 0.62 | active |
| Ddt | 1 | no change with or without drug | 1.24 | 0.17 | 1.24 | 1.05 | inactive |
| Bcl2l12 | 1 | no change with or without drug | -0.22 | -0.34 | 0.11 | 0.92 | inactive |
| Haus6 | 1 | no change with or without drug | -0.67 | -1.85 | 0.79 | 0.88 | inactive |
| Or12j3 | 1 | no change with or without drug | -0.45 | 0.34 | -0.56 | 0.9 | inactive |
| Pllp | 1 | no change with or without drug | 0.11 | 0.17 | 0.11 | 0.95 | inactive |
| Apoa1 | 1 | no change with or without drug | -1.57 | 0.17 | -1.69 | 0.8 | inactive |
| Rad9b | 1 | no change with or without drug | 1.57 | 1.35 | 0.79 | 1.08 | inactive |
| Rad9b | 2 | no change with or without drug | 0.11 | 0.51 | -0.11 | 0.95 | inactive |
| Exoc6 | 1 | no change with or without drug | 1.24 | 0.51 | 1.01 | 1.05 | inactive |
| Caprin1 | 1 | no change with or without drug | 1.57 | 0.51 | 1.35 | 1.08 | inactive |
| Agtpbp1 | 1 | no change with or without drug | 0 | -0.34 | 0.34 | 0.94 | inactive |
| Dr1 | 1 | no change with or without drug | 0 | -0.34 | 0.34 | 0.94 | inactive |
| Eif4ebp2 | 1 | no change with or without drug | -1.35 | 1.52 | -2.14 | 0.82 | inactive |
| Mix23 | 1 | no change with or without drug | 0 | 0.34 | -0.11 | 0.94 | inactive |
| Hoxa9 | 1 | no change with or without drug | -1.91 | -0.84 | -1.35 | 0.77 | inactive |
| Crabp1 | 1 | no change with or without drug | 1.57 | -0.34 | 2.02 | 1.08 | inactive |
| Col5a3 | 1 | high cell count without drug only | 0.11 | 2.53 | -1.35 | 0.95 | inactive |
| Gosr1 | 1 | no change with or without drug | -0.9 | -0.17 | -0.79 | 0.86 | inactive |
| Soat1 | 1 | no change with or without drug | -1.35 | -0.84 | -0.79 | 0.82 | inactive |
| Cd1d1 | 1 | no change with or without drug | 0.9 | 0.84 | 0.45 | 1.02 | inactive |
| Aldh2 | 1 | no change with or without drug | -0.45 | 0.17 | -0.45 | 0.9 | inactive |
| Slc16a6 | 1 | low cell count with doxorubicin only | -3.04 | -0.84 | -2.7 | 0.67 | active |
| Serpinb1c | 1 | no change with or without drug | 0.79 | 0.84 | 0.34 | 1.01 | inactive |
| Snx18 | 1 | no change with or without drug | 0 | -0.17 | 0.22 | 0.94 | inactive |
| Bckdk | 1 | no change with or without drug | -0.34 | -0.17 | -0.11 | 0.91 | inactive |
| Bola3 | 1 | no change with or without drug | -0.22 | 1.18 | -0.9 | 0.92 | inactive |
| Atp8a2 | 1 | no change with or without drug | -1.12 | 1.18 | -1.8 | 0.84 | inactive |
| Prss12 | 1 | no change with or without drug | 0.22 | 0.34 | 0.11 | 0.96 | inactive |
| Tbx21 | 1 | no change with or without drug | 0 | 0.84 | -0.45 | 0.94 | inactive |
| Gpr85 | 1 | no change with or without drug | -0.79 | 0 | -0.67 | 0.87 | inactive |
| Otud7a | 1 | no change with or without drug | 0.67 | 0.51 | 0.45 | 1 | inactive |
| Sema4b | 1 | no change with or without drug | 0 | -1.18 | 1.01 | 0.94 | inactive |
| Dnmt3l | 1 | no change with or without drug | 0.22 | -0.51 | 0.67 | 0.96 | inactive |
| Hey1 | 1 | no change with or without drug | 0.34 | 0.67 | 0 | 0.97 | inactive |
| Pf4 | 1 | no change with or without drug | 0.79 | -0.51 | 1.35 | 1.01 | inactive |
| Zbtb14 | 1 | no change with or without drug | 0.56 | 0.84 | 0.11 | 0.99 | inactive |
| Tmem169 | 1 | no change with or without drug | 1.35 | 0.84 | 0.9 | 1.06 | inactive |
| Pycard | 1 | no change with or without drug | -0.67 | -1.18 | 0.22 | 0.88 | inactive |
| Rab43 | 1 | no change with or without drug | -0.45 | 0.84 | -0.9 | 0.9 | inactive |
| Mesd | 1 | no change with or without drug | 0.22 | -0.17 | 0.45 | 0.96 | inactive |
| Agbl1 | 1 | no change with or without drug | 1.91 | 1.52 | 1.01 | 1.11 | inactive |
| Or4b1c | 1 | no change with or without drug | 0.45 | -0.84 | 1.24 | 0.98 | inactive |
| Mettl6 | 1 | no change with or without drug | 1.12 | 1.85 | 0 | 1.04 | inactive |
| Fam171b | 1 | high cell count without drug only | -0.11 | 3.2 | -1.8 | 0.93 | inactive |
| A930012O16Rik | 1 | no change with or without drug | -0.22 | 0.34 | -0.34 | 0.92 | inactive |
